For experiment [1], the target named is purified human NPM1-214A/217A mutant protein (human) (UniProt P06748). Description: native gel or EMSA; in vitro NPM1 oligomerization assay as a5 but without functional LETN (no RNA, scrambled RNA of similar length, or LETN lacking the three NPM1-binding fragments); both purified. In general terms: A gel shift assay detects complexes by their altered migration in electrophoresis.

By UniProt entry, the sequences of proteins in these tests, tags left out. Where a name states a change or a piece, a line headed by the entry shows the natural chain unless it says otherwise. Chains listed by the source or under a name are the forms on record and can include a tag or linker.
UniProt P06748: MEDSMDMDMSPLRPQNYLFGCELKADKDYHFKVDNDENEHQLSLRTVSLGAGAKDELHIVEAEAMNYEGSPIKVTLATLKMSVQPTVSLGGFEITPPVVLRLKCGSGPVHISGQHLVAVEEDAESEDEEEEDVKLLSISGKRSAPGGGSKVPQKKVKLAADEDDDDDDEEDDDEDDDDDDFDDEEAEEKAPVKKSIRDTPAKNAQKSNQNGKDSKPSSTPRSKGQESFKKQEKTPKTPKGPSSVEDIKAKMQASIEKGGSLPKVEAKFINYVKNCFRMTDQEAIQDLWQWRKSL
purified human NPM1-214A/217A mutant protein (P06748, form named): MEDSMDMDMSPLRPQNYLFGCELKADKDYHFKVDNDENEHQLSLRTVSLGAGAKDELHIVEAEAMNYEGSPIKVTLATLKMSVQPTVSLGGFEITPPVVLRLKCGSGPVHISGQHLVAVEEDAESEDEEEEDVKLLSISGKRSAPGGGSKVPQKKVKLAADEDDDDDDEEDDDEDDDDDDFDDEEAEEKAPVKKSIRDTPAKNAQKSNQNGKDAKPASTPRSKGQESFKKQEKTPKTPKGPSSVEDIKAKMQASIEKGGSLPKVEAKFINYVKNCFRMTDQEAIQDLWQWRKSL

The target is the same in experiment [2]. Description: native gel or EMSA; in vitro NPM1 oligomerization assay: purified NPM1 sonicated in binding buffer (50 mM Tris pH 7.4, 150 mM NaCl, 0.5% NP-40), incubated at RT with the in vitro transcribed first ~2000 nt of LETN, 10% native PAGE, anti-NPM1 blot; both purified.
For experiment [3], the target named is GFP- and mCherry-tagged NPM1 (full-length), exogenously expressed in HUH7 cells (human) (UniProt P06748). In words: FRET or BRET; FLIM-FRET as a3, but in HUH7 cells transfected with LETN siRNA (LETN knockdown). (In BRET a luciferase serves as donor, and the signal depends on an acceptor being close.)

This is an account of results in PMC8169757.

These are yes or no findings as the source states them, for the method shown. For part of these data: In cells and extracts the contact can be indirect.

As to “purified human NPM1-214A/217A mutant protein (from UniProt P06748 1-294)”, the binding entry in experiment [1] and in experiment [2] was “no binding” each time.
Take “GFP- and mCherry-tagged NPM1 (full-length), exogenously expressed in HUH7 cells (from UniProt P06748 1-294)”: the binding result in experiment [3] was “no binding (condition: LETN knockdown)”.
